# Data taken from PubChem BioAssay AID2685 (National Center for Advancing Translational Sciences (NCATS), 2010).
# The other results are listed elsewhere or left out. These are further read-outs of the screen, such as a control signal, another cell line or another target. No call is given for them. The list favours compounds with an active or inconclusive main result. Potencies come from curve fits of mixed quality, noted in brackets.
# Test: qHTS Assay for Lipid Storage Modulators in Drosophila S3 Cells;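 as to cell number change: cells counted by Cell Tracker Red CMTPX staining in the red channel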
# Details: BODIPY lipid droplet fluorescence, 18-24 h; for cell number change: measured here: cell count max response, cells fed with added oleic acid
# Summary of the method: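 Drosophila S3 cells loaded with oleic acid (400 uM, as added) and compounds at several concentrations; lipid droplets imaged by 488-nm laser-scanning cytometry, 500–530 nm intensity and object ratio to cell channel. Percent activity normalized to 20 uM Triacsin C.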
# [1] = measured here: cell number channel AC50, cells fed with added oleic acid
# [2] = measured here: lipid fluorescence (Fed channel) AC50, cells fed with added oleic acid
Compound,AC50 [1],AC50 [2],cell number change [%]
COc1ccc2c(c1)C(C)=CC(C)(C)N2C(=O)CSc1nnc(-c2ccc(C)cc2)o1,"2.91 µM [rising, partial curve]","2.91 µM [rising, partial curve]",
O=C(CCCCn1c(=O)[nH]c2ccccc2c1=O)N1CCN(c2cccc(C(F)(F)F)c2)CC1,,"14.6 µM [falling, partial curve]",-22.2
O=C(O)CC/C(=N\Nc1ccc(S(=O)(=O)N2CCOCC2)cc1[N+](=O)[O-])c1cccs1,,"10.3 µM [rising, partial curve, poor fit]",15.4
O=C(CCCC(=O)NCC1CCCO1)NCC1CCCO1 (stereo not given),,,-1.16
CCOc1ccc(C(=O)NCC(=O)OC2CCOC2=O)cc1OCC (stereo not given),,"29.1 µM [falling, single point]",-17.3
CNC(=O)CC12CC3CC(CC(C3)C1)C2,"3.66 µM [falling, full curve, poor fit]","0.731 µM [falling, full curve]",-26.7
CNC(=O)/C(C#N)=C/c1ccc(OCCOc2ccccc2)cc1,,"29.1 µM [falling, partial curve, poor fit]",7.02
COc1ccccc1N1CCN(C(=S)Nc2ccc(F)cc2)CC1,,"29.1 µM [rising, single point]",
COc1ccccc1NC(=O)CN1CCN(CC(=O)Nc2ccc(F)cc2F)CC1,,"6.51 µM [falling, partial curve, poor fit]",13.9
COc1cc(C2CC(=O)N3CN(Cc4ccco4)CSC3=C2C#N)ccc1OCc1ccccc1 (stereo not given),,"0.651 µM [falling, single point]",0.759
O=C(Cc1cccs1)N1CCCC(c2nc3c(nnn3Cc3ccccc3Cl)c(=O)[nH]2)C1 (stereo not given),"4.61 µM [falling, full curve]","13 µM [falling, partial curve]",-72.8
COc1cc(/C=C2/NC(=O)N(CC(=O)Nc3ccc(C)cc3)C2=O)ccc1Oc1ccc([N+](=O)[O-])cn1,,"32.6 µM [rising, single point]",-11.8
Cc1ccc(N2CC(C(=O)Nc3nc4ccc(S(C)(=O)=O)cc4s3)CC2=O)cc1 (stereo not given),,"0.58 µM [rising, single point]",-17.3
CCN(Cc1ccccc1)Cc1ccc(OCc2ccccc2)cc1,,,1.62
O=C(CSc1nnc(CNC(=O)c2ccco2)o1)Nc1ccc(F)cc1,,"29.1 µM [rising, single point]",21.2
COc1ccc(CNC(=O)C(C)N2CCN(c3ccc(C(C)=O)cc3)CC2)cc1 (stereo not given),,,21.1
Cc1nc2ccc(NC(=O)c3cnc(Cl)c(Cl)c3)cc2s1,,"29.1 µM [falling, single point]",9.68
O=C(c1ccc(-c2ccccc2Cl)o1)N1CCCC(C(F)(F)F)C1 (stereo not given),,,-10.1
Cn1cccc1C(C#N)c1ncc(C(F)(F)F)cc1Cl (stereo not given),,,-29.5
O=C(NCc1ccccc1)c1ccc(-c2ccccc2F)o1,"32.6 µM [falling, single point]","0.651 µM [falling, partial curve, poor fit]",-38.9

# Four neighbouring compounds out of the list so far:
Compound,AC50 [1],AC50 [2],cell number change [%]
COc1ccccc1NC(=O)CN1CCN(CC(=O)Nc2ccc(F)cc2F)CC1,,"6.51 µM [falling, partial curve, poor fit]",13.9
COc1cc(C2CC(=O)N3CN(Cc4ccco4)CSC3=C2C#N)ccc1OCc1ccccc1 (stereo not given),,"0.651 µM [falling, single point]",0.759
O=C(Cc1cccs1)N1CCCC(c2nc3c(nnn3Cc3ccccc3Cl)c(=O)[nH]2)C1 (stereo not given),"4.61 µM [falling, full curve]","13 µM [falling, partial curve]",-72.8
COc1cc(/C=C2/NC(=O)N(CC(=O)Nc3ccc(C)cc3)C2=O)ccc1Oc1ccc([N+](=O)[O-])cn1,,"32.6 µM [rising, single point]",-11.8

# The listing continues:

Compound,AC50 [1],AC50 [2],cell number change [%]
CC(C)(O)C(=O)NN(C(=O)c1ccccc1)c1cccc(Br)c1,,"2.06 µM [falling, partial curve, poor fit]",-17.1
CCCOc1ccc2oc(=O)c3c(c2c1)CCCN3C(=O)CN1CCN(C(=O)c2ccco2)CC1,"8.2 µM [falling, partial curve]","6.51 µM [falling, partial curve]",-53.4
COc1ccc(OC)c(N(CC(=O)N2CCN(c3cc(Cl)ccc3C)CC2)S(C)(=O)=O)c1,"6.51 µM [rising, single point]","6.51 µM [rising, single point]",
COc1ccccc1C(=O)NCCC(=O)NC1=NCCS1,,"0.146 µM [rising, full curve]",-11.3
CCS(=O)(=O)N1CCN(c2ccc([N+](=O)[O-])c(N3CCOCC3)c2)CC1,,"0.411 µM [rising, full curve]",
Cc1nn(C(C)(C)C)c(OC(=O)c2ccc3c(c2)OCO3)c1Sc1ccccc1,,"2.91 µM [falling, partial curve]",
Cn1c(=O)c([N+](=O)[O-])c(Cl)c2ccccc21,"3.66 µM [falling, full curve]","2.31 µM [falling, full curve]",-53.6
C/C(=C\c1ccccc1F)C(=O)c1c(C)cc(C)[nH]c1=O,,"9.2 µM [rising, partial curve, poor fit]",15.7
Cc1csc(SCC(=O)NC(=O)C2CCCCC2)n1,"0.259 µM [falling, full curve]","0.517 µM [falling, full curve]",-50.8
CCc1ccc(NC(=O)CN(c2ccccc2)S(=O)(=O)N(C)C)cc1,,,-38.6
CS(=O)(=O)N(CC(=O)Nc1c(F)cccc1F)c1cccc([N+](=O)[O-])c1,,"4.11 µM [falling, partial curve, poor fit]",-17.9
CC(C)(C)CC(=O)Nc1ccc(S(=O)(=O)N2CCCC2)cc1,,"18.4 µM [falling, partial curve]",-28.5
CC(CNC(=O)c1ccc(OC2CCN(Cc3ccccn3)CC2)cc1)Oc1cccnc1 (stereo not given),,,-10.4
COc1ccc(/C=N/NC(=O)c2ccc(NC(=O)c3ccccc3Br)cc2)cc1,"20.6 µM [falling, partial curve, poor fit]","18.4 µM [falling, partial curve, poor fit]",-42.7
COc1ccc(-n2c(Cn3c(=O)sc4ccccc43)nnc2SCC(=O)N2CCOCC2)cc1,,"29.1 µM [falling, single point]",-10.7
OCCN(Cc1ccccc1)Cc1ccccc1O,,"7.31 µM [falling, partial curve]",-35.1
CCOC(=O)[C@@H]1[C@H]2COc3ccccc3[C@@H]2N2C(=O)N(c3cccc(Cl)c3)C(=O)[C@@]12C,,,-15.9
CCOC(=O)c1c(NC(=O)COC)sc2c1CCCC2,,"1.46 µM [rising, partial curve]",
CNC(=O)C(C)c1ncc(C(F)(F)F)cc1Cl (stereo not given),,"1.3 µM [rising, full curve, poor fit]",-14.5
CCOC(=O)CC1C(C(=O)OCC)ON2OC(C(=O)OC)C(C(=O)OCC)C12 (stereo not given),,"32.6 µM [falling, single point]",-13.1

Compound,AC50 [1],AC50 [2],cell number change [%]
O=C(CSc1nnnn1C1CCCCC1)Nc1ccc2c(c1)OCO2,,"2.59 µM [rising, partial curve]",23.6
CC(CNC(=O)CN1C(=O)NC2(CCCCC2)C1=O)c1ccccc1 (stereo not given),,"6.51 µM [rising, single point]",4.17
CCOC(=O)c1ccc(N2C(=O)CC(N3CCOCC3)C2=O)cc1 (stereo not given),,,-0.419
CCOc1ccc(NC(=O)CC2C(=O)N(c3ccccc3)C(=O)N2CCc2cccs2)cc1 (stereo not given),,"1.03 µM [rising, partial curve]",
COc1ccc(OCC(=O)NNC(=O)C2CCN(c3ncnc4sc(C)c(C)c34)CC2)cc1,,"1.84 µM [rising, partial curve, poor fit]",13.1
c1ccc(CNc2nc3ccccc3n3cnnc23)cc1,,,17.3
O=C(Nc1ccnn1C1CCN(Cc2ccccc2F)CC1)C1CCCC1,,"0.116 µM [falling, full curve, poor fit]",-9.07
Cc1cccc(NC(=O)c2ccccc2O)c1C,"0.517 µM [falling, full curve, poor fit]","5.17 µM [falling, full curve, poor fit]",-32.8
O=C(COc1ccc(-c2ccccc2)cc1)N1CCCC1,"13 µM [falling, partial curve]","2.06 µM [falling, partial curve]",-32.3
O=C(N/N=C/c1cccc(Cl)c1Cl)Nc1ccccc1,,"0.461 µM [falling, partial curve]",1.81
Cn1nc(C(C)(C)C)cc1C(=O)O,,,-0.62
CCOc1ccc(C(F)(F)F)cc1NC(C)=O,"11.6 µM [rising, partial curve]","4.11 µM [rising, partial curve]",143
CCOC(=O)c1cc(-c2ccccc2)nc2nc(N3CCCCC3)sc12,"0.366 µM [falling, partial curve]","0.461 µM [rising, full curve]",-48.6
COc1ccccc1CNC(=O)C1(C)Oc2cccnc2NC1=O (stereo not given),,"0.259 µM [rising, partial curve, poor fit]",15.1
COc1cc(C(=O)N/N=C/c2ccc3c(c2)c2ccccc2n3C)ccc1O,"9.2 µM [falling, partial curve]",,-50.9
O=C(Nc1ccc(Cl)cc1)Nc1ccccc1Sc1ncc([N+](=O)[O-])s1,"29.1 µM [falling, single point]",,-64.6
CCCC(=O)N1N=C(c2ccccc2)CC1c1cn(C)c2ccccc12 (stereo not given),"10.3 µM [rising, partial curve]","18.4 µM [rising, single point]",42.2
COCCCn1c(-c2cccc(Cl)c2)nc2c1c(=O)[nH]c(=O)n2Cc1ccccc1,,,11.5
CCN(CC)c1ccc(CN(C(=O)c2ccco2)C2CCS(=O)(=O)C2)cc1 (stereo not given),,"29.1 µM [rising, single point]",-1.63
COc1ccc(/C=N/N2CCN(Cc3ccc(C)cc3)CC2)cc1Br,,"29.1 µM [rising, single point]",22.3
